# Measurements from article PMC9317960 (Biochemical Journal, 2022).
# No constants are given. Whether binding was seen depends on the method and setting.
# Biological target: SCRIB PDZ3 H1071A (human) (UniProt Q14160)
# Assay: ITC; both purified
binder,measurement,value
LRLESSII [TBEV NS5_CTN peptide (C-terminal PBM of NS5)],binding,no binding
